# In patent publication US20250339812A1, “ELECTROCHEMICAL DIRECT AIR CAPTURE OF CARBON DIOXIDE USING REVERSIBLE REDOX-ACTIVE MATERIAL” (Massachusetts Institute of Technology, priority 2022, published 2025):
# Assay: Carbon dioxide absorption by NRH2 solution from CO2 inlet gas streams
# Settings: for carbon dioxide absorbed: 1 mL of 50 mM NRH2, 15% carbon dioxide
smiles,measurement,setting,value
"Cc1cc2c(cc1N)Nc1cc(N(C)C)ccc1N2 [NRH2, leuco-neutral red]",carbon dioxide absorbed,,1.56 equivalent to NRH2
same,carbon dioxide absorbed,saturation,78 µmol
same,amount of absorbed carbon dioxide higher than with EDA,"15% carbon dioxide inlet gas stream, 50 mM solutions",56%
